# Assay results published in doi:10.1101/2024.09.12.612642.
# These are yes or no findings as the source states them, for the method shown. Binding seen in cells or lysates may run through a third protein. Some binding calls cover weakened binding; strength is not graded here. Tags and fused reporters may be left off the sequences shown.
# T1: AL5 (Arabidopsis (endogenous in floral tissue)) (UniProt Q5XEM9)
# T1 sequence: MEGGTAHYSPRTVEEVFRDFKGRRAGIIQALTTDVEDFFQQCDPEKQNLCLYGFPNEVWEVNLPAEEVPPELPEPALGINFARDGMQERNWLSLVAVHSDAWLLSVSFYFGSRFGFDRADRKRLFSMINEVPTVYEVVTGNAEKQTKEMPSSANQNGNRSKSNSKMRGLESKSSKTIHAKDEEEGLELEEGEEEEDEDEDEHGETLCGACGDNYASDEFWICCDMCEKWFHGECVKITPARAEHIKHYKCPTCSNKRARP
# Biological target: T1, AL5 (Arabidopsis (endogenous in floral tissue))
# Experiment: co-IP
row,binding,Binder
1,binds,"ARP6-3xFLAG-BLRP (protein, UniProt Q8LGE3 1-421) MSNIVVLDNGGGLIKAGQGGERDPTTVIPNCLYKPLSSKKFIHPSPLTTLSDEIDLTSAAVRRPIDRGYLINSDLQREIWSHLFTSLLHIAPSSSSLLLTEAPLSIPSVQRTTDELVFEDFGFSSLYIAHPQSLVHLYEASRQPDSILSKTQCSLVVDCGFSFTHAVPVLHNFTLNHAIKRIDLGGKAFTNYLKELVSYRSINVMDETFLVDDAKEKLCFVSLDLLRDLRLARNGNTLIKSTYVLPDGVTHTKGYVKDPQAAKRFLSLSEKESVVVMDKVGERKKADMNKNEIDLTNERFLVPETLFQPADLGMNQAGLAECIVRAINSCHSYLQPVLYQSIILTGGSTLFPQLKERLEGELRPLVPDHFDVKITTQEDPILGVWRGGSLLASSPDFESMCVTKAEYEELGSARCRRRFFH"
2,binds,"ARP6-9xMYC-BLRP (protein, UniProt Q8LGE3 1-421) MSNIVVLDNGGGLIKAGQGGERDPTTVIPNCLYKPLSSKKFIHPSPLTTLSDEIDLTSAAVRRPIDRGYLINSDLQREIWSHLFTSLLHIAPSSSSLLLTEAPLSIPSVQRTTDELVFEDFGFSSLYIAHPQSLVHLYEASRQPDSILSKTQCSLVVDCGFSFTHAVPVLHNFTLNHAIKRIDLGGKAFTNYLKELVSYRSINVMDETFLVDDAKEKLCFVSLDLLRDLRLARNGNTLIKSTYVLPDGVTHTKGYVKDPQAAKRFLSLSEKESVVVMDKVGERKKADMNKNEIDLTNERFLVPETLFQPADLGMNQAGLAECIVRAINSCHSYLQPVLYQSIILTGGSTLFPQLKERLEGELRPLVPDHFDVKITTQEDPILGVWRGGSLLASSPDFESMCVTKAEYEELGSARCRRRFFH"
